Reference: paper PMC4901443
These are yes or no findings as the source states them, for the method shown. Some results given as binding are weak or reduced against the parent protein; the word gives no strength.

The chains behind the UniProt entries cited, without tags or fusion partners. Residues count along the entry.
UniProt P12368, residues 1-44: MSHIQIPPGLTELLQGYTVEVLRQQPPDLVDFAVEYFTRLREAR

Molecular target: T1, RSP3 (AKAP97), endogenous in axonemes (Chlamydomonas reinhardtii (endogenous in axonemes)) (UniProt P12759)
T1 sequence: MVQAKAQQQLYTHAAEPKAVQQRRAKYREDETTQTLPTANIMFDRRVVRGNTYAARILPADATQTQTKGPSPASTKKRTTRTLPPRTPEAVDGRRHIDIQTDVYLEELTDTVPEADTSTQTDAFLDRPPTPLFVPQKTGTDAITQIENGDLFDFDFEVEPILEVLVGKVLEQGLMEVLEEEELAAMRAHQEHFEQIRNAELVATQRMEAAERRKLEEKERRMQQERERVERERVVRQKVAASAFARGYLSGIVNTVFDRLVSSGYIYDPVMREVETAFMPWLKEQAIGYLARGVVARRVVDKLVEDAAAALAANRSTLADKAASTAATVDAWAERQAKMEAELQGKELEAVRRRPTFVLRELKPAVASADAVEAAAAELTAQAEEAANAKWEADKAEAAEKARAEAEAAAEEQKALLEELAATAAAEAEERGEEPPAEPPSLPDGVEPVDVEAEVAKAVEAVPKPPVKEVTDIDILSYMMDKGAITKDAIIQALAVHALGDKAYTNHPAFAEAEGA
Assay: far-Western, overlay or dot blot; axonemes of WT and mutants (pf14, pf15, pf18, pf19, pf20) on SDS-PAGE, blotted on nitrocellulose, overlaid with ~20 μg/ml purified 6His-FAP174 or 6His-RIIa D/D; detected with HRP-conjugated anti-His antibody; only the binder purified

“6His-tagged RIIa D/D (regulatory subunit RIIa of PKA, dimerization and docking domain, 1–44) (from UniProt P12368 1-44) (domain or fragment)” was tested, and the binding was “binds”.
